Some of the results follow. Many values rest on one well or one pass, so single values are uncertain.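 The apoptosis fraction was the count of cleaved-PARP antibody-stained nuclei relative to all DNA-stained nuclei, imaged in 1,536-well plates. Screening doses were set so most cells survived, and baseline and induced cleaved-PARP levels vary greatly across cell lines.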
Tested on: WM3526
Experiment: cleaved PARP positive nuclei fraction relative to DMSO control; melanoma cells; higher = more apoptosis
Conditions: library dose: low library concentration; 72 h

Row | SMILES | cleaved PARP positive nuclei fraction [%]
1 | COCC[n+]1c2c(n(Cc3cnccn3)c1C)C(=O)c1ccccc1C2=O + N#Cc1c(O)c2c(-c3ccc(-c4ccccc4O)cc3)csc2[nH]c1=O [A769662] (first compound 0.0004 µM, partner dose 2 µM) | 74.1
2 | C[C@@H]1CCN(C(=O)CC#N)C[C@@H]1N(C)c1ncnc2[nH]ccc12 + COc1ccc(COc2ccc(Cc3cnc(N)nc3N)cc2OC)cc1 [GW2580] (first compound 1 µM, partner dose 1 µM) | 113
3 | Cn1c(Nc2ccc(C(F)(F)F)cc2)nc2cc(Oc3ccnc(-c4ncc(C(F)(F)F)[nH]4)c3)ccc21 + CCCCCCCCCCCC1=C(O)C(=O)C=C(O)C1=O [Embelin] (first compound 0.08 µM, partner dose 1.2 µM) | 63.5
4 | C=CCn1c(=O)c2cnc(Nc3ccc(N4CCN(C)CC4)cc3)nc2n1-c1cccc(C(C)(C)O)n1 + CC(C)(C)c1cnc(CSc2cnc(NC(=O)C3CCNCC3)s2)o1 [SNS-032] (first compound 0.02 µM, partner dose 0.01 µM) | 89.4
5 | Cc1nc(Nc2ncc(C(=O)Nc3c(C)cccc3Cl)s2)cc(N2CCN(CCO)CC2)n1 [dasatanib] + CC(C)CCN1c2nc(Nc3cc(F)c(O)c(F)c3)ncc2N(C)C(=O)C1C [BID1870] (first compound 0.004 µM, partner dose 0.2 µM) | 387
6 | CC1(C)NC(=O)N(c2ccc([N+](=O)[O-])c(C(F)(F)F)c2)C1=O [nilutamide] + CN(C)S(=O)(=O)c1ccc2c(c1)/C(=C/c1cc3c([nH]1)CCCC3)C(=O)N2 [SU6656] (first compound 1 µM, partner dose 0.4 µM) | 60.7
7 | CC(=O)c1c(C)c2cnc(Nc3ccc(N4CCNCC4)cn3)nc2n(C2CCCC2)c1=O [palbociclib] + O=C(O)c1ccc(-c2c[nH]c3ncc(-c4ccccc4)cc23)cc1C1CCCC1 [GSK650394] (first compound 0.04 µM, partner dose 0.16 µM) | 75.8
8 | OCCn1cc(-c2cnc3nnn(Cc4ccc5ncccc5c4)c3n2)cn1 + Oc1cc(-c2nc(-c3ccccc3)[nH]c2-c2ccncc2)ccc1Cl [L779450] (first compound 1 µM, partner dose 0.2 µM) | 76.1
9 | COc1cc(Nc2ncc(F)c(Nc3ccc4c(n3)NC(=O)C(C)(C)O4)n2)cc(OC)c1OC [Tamatinib] + CN(NC(=O)CC(=O)NN(C)C(=S)c1ccccc1)C(=S)c1ccccc1 [STA4783] (first compound 0.4 µM, partner dose 0.006 µM) | 58.5
10 | Cc1ccc(NC(=O)c2cccc(N(C)C)c2)cc1NC(=O)c1ccc(O)cc1 + CC(C)(C)c1cnc(CSc2cnc(NC(=O)C3CCNCC3)s2)o1 [SNS-032] (first compound 2 µM, partner dose 0.01 µM) | 55
11 | C[C@]1(c2nc3c(C(N)=O)cccc3[nH]2)CCCN1 [Veliparib] + Cc1ccc(NC(=O)c2cccc(N(C)C)c2)cc1NC(=O)c1ccc(O)cc1 [ZM336372] (first compound 1.4 µM, partner dose 2 µM) | 111
12 | O=C(CCCCCCC(=O)Nc1ccccc1)NO [vorinostat] + CN(C)S(=O)(=O)c1ccc2c(c1)/C(=C/c1cc3c([nH]1)CCCC3)C(=O)N2 [SU6656] (first compound 0.08 µM, partner dose 0.4 µM) | 217
13 | Cn1nnc2c(C(N)=O)ncn2c1=O [temozolomide] + Oc1nc(-c2ccc(C(F)(F)F)cc2)nc2c1CSCC2 [XAV939] (first compound 2 µM, partner dose 2 µM) | 58.3

Tested on: WM3619
Experiment: as above
Conditions: library dose: low library concentration; 72 h

Row | SMILES | cleaved PARP positive nuclei fraction [%]
14 | COc1cc(Nc2ncc(F)c(Nc3ccc4c(n3)NC(=O)C(C)(C)O4)n2)cc(OC)c1OC [Tamatinib] + O=C(Nc1ccccc1)c1cc([N+](=O)[O-])ccc1Cl [GW9662] (first compound 0.4 µM, partner dose 2 µM) | 217
15 | Cn1cncc1[C@@](N)(c1ccc(Cl)cc1)c1ccc2c(c1)c(-c1cccc(Cl)c1)cc(=O)n2C [tipifarnib] + O=C(O)C(=O)Nc1sc2c(c1C(=O)O)CCNC2 [TCS401] (first compound 0.01 µM, partner dose 1.66667 µM) | 76.6
16 | C=CCNC1=C2C[C@@H](C)C[C@H](OC)[C@H](O)[C@@H](C)/C=C(\C)[C@H](OC(N)=O)[C@@H](OC)/C=C\C=C(/C)C(=O)NC(=CC1=O)C2=O [Tanespimycin] + COc1cc(Nc2ncc(F)c(Nc3ccc4c(n3)NC(=O)C(C)(C)O4)n2)cc(OC)c1OC [Tamatinib] (first compound 0.002 µM, partner dose 0.4 µM) | 116
17 | Nc1cccc2c1CN(C1CCC(=O)NC1=O)C2=O (stereo not drawn) [lenalidomide] + O=C(O)c1ccc(-c2c[nH]c3ncc(-c4ccccc4)cc23)cc1C1CCCC1 [GSK650394] (first compound 1 µM, partner dose 0.16 µM) | 92.8
18 | Cn1cncc1[C@@](N)(c1ccc(Cl)cc1)c1ccc2c(c1)c(-c1cccc(Cl)c1)cc(=O)n2C [tipifarnib] + CN(C)S(=O)(=O)c1ccc2c(c1)/C(=C/c1cc3c([nH]1)CCCC3)C(=O)N2 [SU6656] (first compound 0.01 µM, partner dose 0.4 µM) | 241
19 | Cc1nc(Nc2ncc(C(=O)Nc3c(C)cccc3Cl)s2)cc(N2CCN(CCO)CC2)n1 [dasatanib] + C=CCn1c(=O)c2cnc(Nc3ccc(N4CCN(C)CC4)cc3)nc2n1-c1cccc(C(C)(C)O)n1 [MK1775] (first compound 0.004 µM, partner dose 0.02 µM) | 118
20 | O=C(CCCCCCC(=O)Nc1ccccc1)NO [vorinostat] + COc1ccc(COc2ccc(Cc3cnc(N)nc3N)cc2OC)cc1 [GW2580] (first compound 0.08 µM, partner dose 1 µM) | 72.9
21 | C[C@@H]1CCN(C(=O)CC#N)C[C@@H]1N(C)c1ncnc2[nH]ccc12 + CCc1ccc(CCOc2ccc(CC3SC(=O)NC3=O)cc2)nc1 [pioglitazone] (first compound 1 µM, partner dose 2 µM) | 74.2
22 | C#Cc1cccc(Nc2ncnc3cc(OCCOC)c(OCCOC)cc23)c1 [erlotinib] + CC(C)(C)c1cnc(CSc2cnc(NC(=O)C3CCNCC3)s2)o1 [SNS-032] (first compound 0.8 µM, partner dose 0.01 µM) | 72.7
23 | Cn1cncc1[C@@](N)(c1ccc(Cl)cc1)c1ccc2c(c1)c(-c1cccc(Cl)c1)cc(=O)n2C [tipifarnib] + N#Cc1c(O)c2c(-c3ccc(-c4ccccc4O)cc3)csc2[nH]c1=O [A769662] (first compound 0.01 µM, partner dose 2 µM) | 108
24 | Cn1cncc1[C@@](N)(c1ccc(Cl)cc1)c1ccc2c(c1)c(-c1cccc(Cl)c1)cc(=O)n2C [tipifarnib] + COc1cc(N2CCC(N3CCN(C)CC3)CC2)ccc1Nc1ncc(Cl)c(Nc2ccccc2S(=O)(=O)C(C)C)n1 [NVP-TAE684] (first compound 0.01 µM, partner dose 0.08 µM) | 160
25 | COCC[n+]1c2c(n(Cc3cnccn3)c1C)C(=O)c1ccccc1C2=O + NC(=O)Nc1cc(-c2cccc(F)c2)sc1C(=O)N[C@H]1CCCNC1 [AZD7762] (first compound 0.0004 µM, partner dose 0.02 µM) | 162
26 | Nc1cccc2c1CN(C1CCC(=O)NC1=O)C2=O (stereo not drawn) [lenalidomide] + OCCn1cc(-c2cnc3nnn(Cc4ccc5ncccc5c4)c3n2)cn1 [PF04217903] (first compound 1 µM, partner dose 1 µM) | 91.8
27 | Cn1nnc2c(C(N)=O)ncn2c1=O [temozolomide] + Cc1ccc(NC(=O)c2cccc(N(C)C)c2)cc1NC(=O)c1ccc(O)cc1 [ZM336372] (first compound 2 µM, partner dose 2 µM) | 98.7
28 | Cn1nnc2c(C(N)=O)ncn2c1=O [temozolomide] + Cn1cc(/C=C2\C(=O)Nc3cccnc32)c2ccccc21 [GW441756] (first compound 2 µM, partner dose 0.4 µM) | 293
29 | Cc1cc(N2CCOCC2)cc2[nH]c(-c3c(NC[C@@H](O)c4cccc(Cl)c4)cc[nH]c3=O)nc12 + O=C(Nc1ccccc1)c1cc([N+](=O)[O-])ccc1Cl [GW9662] (first compound 0.2 µM, partner dose 2 µM) | 88.6
30 | C[C@]1(c2nc3c(C(N)=O)cccc3[nH]2)CCCN1 [Veliparib] + Oc1cc(-c2nc(-c3ccccc3)[nH]c2-c2ccncc2)ccc1Cl [L779450] (first compound 1.4 µM, partner dose 0.2 µM) | 122
31 | C#Cc1cccc(Nc2ncnc3cc(OCCOC)c(OCCOC)cc23)c1 [erlotinib] + Cc1cc([N+](=O)[O-])ccc1NS(=O)(=O)c1cc(Cl)ccc1Cl [FH535] (first compound 0.8 µM, partner dose 1 µM) | 78
32 | C[C@]1(c2nc3c(C(N)=O)cccc3[nH]2)CCCN1 [Veliparib] + C=CCn1c(=O)c2cnc(Nc3ccc(N4CCN(C)CC4)cc3)nc2n1-c1cccc(C(C)(C)O)n1 [MK1775] (first compound 1.4 µM, partner dose 0.02 µM) | 147
33 | Cn1c(Nc2ccc(C(F)(F)F)cc2)nc2cc(Oc3ccnc(-c4ncc(C(F)(F)F)[nH]4)c3)ccc21 + O=C(Nc1cccc(Cl)c1)Nc1ncc(CCNc2ncnc3ccsc23)s1 [SNS314] (first compound 0.08 µM, partner dose 0.0008 µM) | 124

6 neighbouring records already listed, for reference:
Row | SMILES | cleaved PARP positive nuclei fraction [%]
24 | Cn1cncc1[C@@](N)(c1ccc(Cl)cc1)c1ccc2c(c1)c(-c1cccc(Cl)c1)cc(=O)n2C [tipifarnib] + COc1cc(N2CCC(N3CCN(C)CC3)CC2)ccc1Nc1ncc(Cl)c(Nc2ccccc2S(=O)(=O)C(C)C)n1 [NVP-TAE684] (first compound 0.01 µM, partner dose 0.08 µM) | 160
25 | COCC[n+]1c2c(n(Cc3cnccn3)c1C)C(=O)c1ccccc1C2=O + NC(=O)Nc1cc(-c2cccc(F)c2)sc1C(=O)N[C@H]1CCCNC1 [AZD7762] (first compound 0.0004 µM, partner dose 0.02 µM) | 162
26 | Nc1cccc2c1CN(C1CCC(=O)NC1=O)C2=O (stereo not drawn) [lenalidomide] + OCCn1cc(-c2cnc3nnn(Cc4ccc5ncccc5c4)c3n2)cn1 [PF04217903] (first compound 1 µM, partner dose 1 µM) | 91.8
27 | Cn1nnc2c(C(N)=O)ncn2c1=O [temozolomide] + Cc1ccc(NC(=O)c2cccc(N(C)C)c2)cc1NC(=O)c1ccc(O)cc1 [ZM336372] (first compound 2 µM, partner dose 2 µM) | 98.7
28 | Cn1nnc2c(C(N)=O)ncn2c1=O [temozolomide] + Cn1cc(/C=C2\C(=O)Nc3cccnc32)c2ccccc21 [GW441756] (first compound 2 µM, partner dose 0.4 µM) | 293
29 | Cc1cc(N2CCOCC2)cc2[nH]c(-c3c(NC[C@@H](O)c4cccc(Cl)c4)cc[nH]c3=O)nc12 + O=C(Nc1ccccc1)c1cc([N+](=O)[O-])ccc1Cl [GW9662] (first compound 0.2 µM, partner dose 2 µM) | 88.6
